Patent US9134318B2, “Detection of oxidized polypeptides” (Purdue Research Foundation, priority 2009, dated 2015)

B1: C4BP_HUMAN (protein, UniProt P04003 49-597, looked up)
C4b-binding protein alpha …: NCGPPPTLSFAAPMDITLTETRFKTGTTLKYTCLPGYVRSHSTQTLTCNSDGEWVYNTFCIYKRCRHPGELRNGQVEIKTDLSFGSQIEFSCSEGFFLIGSTTSRCEVQDRGVGWSHPLPQCEIVKCKPPPDIRNGRHSGEENFYAYGFSVTYSCDPRFSLLGHASISCTVENETIGVWRPSPPTCEKITCRKPDVSHGEMVSGFGPIYNYKDTIVFKCQKGFVLRGSSVIHCDADSKWNPSPPACEPNSCINLPDIPHASWETYPRPTKEDVYVVGTVLRYRCHPGYKPTTDEPTTVICQKNLRWTPYQGCEALCCPEPKLNNGEITQHRKSRPANHCVYFYGDEISFSCHETSRFSAICQGDGTWSPRTPSCGDICNFPPKIAHGHYKQSSSYSFFKEEIIYECDKGYILVGQAKLSCSYSHWSAPAPQCKALCRKPELVNGRLSVDKDQYVEPENVTIQCDSGYGVVGPQSITCSGNRTWYPEVPKCEWETPEGCEQVLTGKRLMQCLPNPEDVKMALEVYKLSLEIEQLELQRDSARQSTLDKEL
B2: IGHA2_HUMAN (protein, UniProt P01877 1-391, looked up)
Immunoglobulin heavy constant …: ASPTSPKVFPLSLDSTPQDGNVVVACLVQGFFPQEPLSVTWSESGQNVTARNFPPSQDASGDLYTTSSQLTLPATQCPDGKSVTCHVKHYTNSSQDVTVPCRVPPPPPCCHPRLSLHRPALEDLLLGSEANLTCTLTGLRDASGATFTWTPSSGKSAVQGPPERDLCGCYSVSSVLPGCAQPWNHGETFTCTAAHPELKTPLTANITKSGNTFRPEVHLLPPPSEELALNELVTLTCLARGFSPKDVLVRWLQGSQELPREKYLTWASRQEPSQGTTTYAVTSILRVAAEDWKKGETFSCMVGHEALPLAFTQKTIDRMAGSCCVADWQMPPPYVVLDLPQETLEEETPGANLWPTTITFLTLFLLSLFYSTALTVTSVRGPSGKREGPQY
B3: Ubiquitin carboxyl-terminal hydrolases 43 (protein, UniProt Q70EL4 1-1123, looked up)
Ubiquitin carboxyl-terminal …: MDLGPGDAAGGGPLAPRPRRRRSLRRLFSRFLLALGSRSRPGDSPPRPQPGHCDGDGEGGFACAPGPVPAAPGSPGEERPPGPQPQLQLPAGDGARPPGAQGLKNHGNTCFMNAVVQCLSNTDLLAEFLALGRYRAAPGRAEVTEQLAALVRALWTREYTPQLSAEFKNAVSKYGSQFQGNSQHDALEFLLWLLDRVHEDLEGSSRGPVSEKLPPEATKTSENCLSPSAQLPLGQSFVQSHFQAQYRSSLTCPHCLKQSNTFDPFLCVSLPIPLRQTRFLSVTLVFPSKSQRFLRVGLAVPILSTVAALRKMVAEEGGVPADEVILVELYPSGFQRSFFDEEDLNTIAEGDNVYAFQVPPSPSQGTLSAHPLGLSASPRLAAREGQRFSLSLHSESKVLILFCNLVGSGQQASRFGPPFLIREDRAVSWAQLQQSILSKVRHLMKSEAPVQNLGSLFSIRVVGLSVACSYLSPKDSRPLCHWAVDRVLHLRRPGGPPHVKLAVEWDSSVKERLFGSLQEERAQDADSVWQQQQAHQQHSCTLDECFQFYTKEEQLAQDDAWKCPHCQVLQQGMVKLSLWTLPDILIIHLKRFCQVGERRNKLSTLVKFPLSGLNMAPHVAQRSTSPEAGLGPWPSWKQPDCLPTSYPLDFLYDLYAVCNHHGNLQGGHYTAYCRNSLDGQWYSYDDSTVEPLREDEVNTRGAYILFYQKRNSIPPWSASSSMRGSTSSSLSDHWLLRLGSHAGSTRGSLLSWSSAPCPSLPQVPDSPIFTNSLCNQEKGGLEPRRLVRGVKGRSISMKAPTTSRAKQGPFKTMPLRWSFGSKEKPPGASVELVEYLESRRRPRSTSQSIVSLLTGTAGEDEKSASPRSNVALPANSEDGGRAIERGPAGVPCPSAQPNHCLAPGNSDGPNTARKLKENAGQDIKLPRKFDLPLTVMPSVEHEKPARPEGQKAMNWKESFQMGSKSSPPSPYMGFSGNSKDSRRGTSELDRPLQGTLTLLRSVFRKKENRRNERAEVSPQVPPVSLVSGGLSPAMDGQAPGSPPALRIPEGLARGLGSRLERDVWSAPSSLRLPRKASRAPRGSALGMSQRTVPGEQASYGTFQRVKYHTLSLGRKKTLPESSF
B4: WD repeat protein 89 (protein, UniProt Q96FK6 1-387, looked up)
WD repeat-containing protein …: MEKIEEQFANLHIVKCSLGTKEPTYLLGIDTSKTVQAGKENLVAVLCSNGSIRIYDKERLNVLREFSGYPGLLNGVRFANSCDSVYSACTDGTVKCWDARVAREKPVQLFKGYPSNIFISFDINCNDHIICAGTEKVDDDALLVFWDARMNSQNLSTTKDSLGAYSETHSDDVTQVRFHPSNPNMVVSGSSDGLVNVFDINIDNEEDALVTTCNSISSVSCIGWSGKGYKQIYCMTHDEGFYWWDLNHLDTDEPVTRLNIQDVREVVNMKEDALDYLIGGLYHEKTDTLHVIGGTNKGRIHLMNCSMSGLTHVTSLQGGHAATVRSFCWNVQDDSLLTGGEDAQLLLWKPGAIEKTFTKKESMKIASSVHQRVRVHSNDSYKRRKKQ
B5: Apolipoprotein C-I precursor (protein, UniProt P02654 1-83, looked up)
chain: MRLFLSLPVLVVVLSIVLEGPAPAQGTPDVSSALDKLKEFGNTLEDKARELISRIKQSELSAKMREWFSETFQKVKEKLKIDS
modifications: full-length oxidized
B6: Apolipoprotein C-IV precursor (protein, UniProt P55056 28-127, looked up)
pro-form: QPEAQEGTLSPPPKLKMSRWSLVRGRMKELLETVVNRTRDGWQWFWSPSTFRGFMQTYYDDHLRDLGPLTKAWFLESKDSLLKKTHSLCPRLVCGDKDQG
modifications: pro-form
B7: Apolipoprotein-L1 precursor (protein, UniProt O14791 28-398, looked up)
pro-form: EEAGARVQQNVPSGTDTGDPQSKPLGDWAAGTMDPESSIFIEDAIKYFKEKVSTQNLLLLLTDNEAWNGFVAAAELPRNEADELRKALDNLARQMIMKDKNWHDKGQQYRNWFLKEFPRLKSELEDNIRRLRALADGVQKVHKGTTIANVVSGSLSISSGILTLVGMGLAPFTEGGSLVLLEPGMELGITAALTGITSSTMDYGKKWWTQAQAHDLVIKSLDKLKEVREFLGENISNFLSLAGNTYQLTRGIGKDIRALRRARANLQSVPHASASRPRVTEPISAESGEQVERVNEPSILEMSRGVKLTDVAPVSFFLVLDVVYLVYESKHLHEGAKSETAEELKKVAQELEEKLNILNNNYKILQADQEL
modifications: pro-form
B8: C4b-binding protein alpha chain precursor (protein, UniProt P04003 1-597, looked up)
chain: MHPPKTPSGALHRKRKMAAWPFSRLWKVSDPILFQMTLIAALLPAVLGNCGPPPTLSFAAPMDITLTETRFKTGTTLKYTCLPGYVRSHSTQTLTCNSDGEWVYNTFCIYKRCRHPGELRNGQVEIKTDLSFGSQIEFSCSEGFFLIGSTTSRCEVQDRGVGWSHPLPQCEIVKCKPPPDIRNGRHSGEENFYAYGFSVTYSCDPRFSLLGHASISCTVENETIGVWRPSPPTCEKITCRKPDVSHGEMVSGFGPIYNYKDTIVFKCQKGFVLRGSSVIHCDADSKWNPSPPACEPNSCINLPDIPHASWETYPRPTKEDVYVVGTVLRYRCHPGYKPTTDEPTTVICQKNLRWTPYQGCEALCCPEPKLNNGEITQHRKSRPANHCVYFYGDEISFSCHETSRFSAICQGDGTWSPRTPSCGDICNFPPKIAHGHYKQSSSYSFFKEEIIYECDKGYILVGQAKLSCSYSHWSAPAPQCKALCRKPELVNGRLSVDKDQYVEPENVTIQCDSGYGVVGPQSITCSGNRTWYPEVPKCEWETPEGCEQVLTGKRLMQCLPNPEDVKMALEVYKLSLEIEQLELQRDSARQSTLDKEL
modifications: full-length oxidized
B9: CD5 antigen-like precursor (protein, UniProt O43866 1-347, looked up)
chain: MALLFSLILAICTRPGFLASPSGVRLVGGLHRCEGRVEVEQKGQWGTVCDDGWDIKDVAVLCRELGCGAASGTPSGILYEPPAEKEQKVLIQSVSCTGTEDTLAQCEQEEVYDCSHDEDAGASCENPESSFSPVPEGVRLADGPGHCKGRVEVKHQNQWYTVCQTGWSLRAAKVVCRQLGCGRAVLTQKRCNKHAYGRKPIWLSQMSCSGREATLQDCPSGPWGKNTCNHDEDTWVECEDPFDLRLVGGDNLCSGRLEVLHKGVWGSVCDDNWGEKEDQVVCKQLGCGKSLSPSFRDRKCYGPGVGRIWLDNVRCSGEEQSLEQCQHRFWGFHDCTHQEDVAVICSG
modifications: full-length oxidized

Columns and labels:
[1] = test system: carbonylated plasma proteins; experiment: MALDI/TOF/TOF identification of avidin-selected carbonylated proteins in normal human plasma (Table 6); conditions: MALDI-MS/MS (ABI 4800 plus)
[2] = test system: carbonylated plasma proteins; experiment: iTRAQ and MALDI/TOF/TOF quantitative comparison of avidin-selected carbonylated proteins, breast cancer patients vs controls (Table 8); design: species or system Homo sapiens; conditions: avidin-selected carbonylated protein in plasma, breast cancer patient vs matched control, iTRAQ; repeated lines of a protein = different donors; negative = lower in cancer

| Molecule | Breast cancer/control (fold change) [2] [fold change] | also measured |
| --- | --- | --- |
| B1 |  | Number of unique peptides assigned to the protein ([1]; Donor 3): 10.35 |
| B2 |  | Number of unique peptides assigned to the protein ([1]; Donor 2): 3.52 |
| B3 | 2.2 |  |
| B4 | −4.5 |  |
| B5 | −2.0 |  |
| B6 | 2.2 |  |
| B7 | 5.0 |  |
| B8 | 1.7 |  |
| B9 | 2.0 |  |
